Only a part is listed here, and it is no random draw. At the low end of the ranking, values are background and their order means little.

The assay deals with T1, ETV3 (UniProt P41162-2).
T1 sequence: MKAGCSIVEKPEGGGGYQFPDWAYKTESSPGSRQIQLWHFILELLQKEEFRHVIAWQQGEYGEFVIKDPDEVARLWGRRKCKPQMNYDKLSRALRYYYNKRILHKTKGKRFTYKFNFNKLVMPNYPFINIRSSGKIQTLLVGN
The assay is described as follows: DAPPL (digital affinity profiling via proximity ligation, sequencing). Particulars: 10 mM Tris-HCl pH 7.5, 50 mM NaCl, 1 mM DTT, 4% glycerol, room temperature, 30 min; GST-TFs on glutathione beads, 16-mer random dsDNA library, 0.1% …; high values mean tight binding; double strand, one strand shown; scale: fold enrichment (6-mer frequency, TF over GST control).
The sequence TGCCGA returned a binding signal of 1.22.
The figure for CTTCTC is 1.31.
As for TTCAAC, the figure is 1.32; as for TGGGCT, 1.41.
GCTCTT yielded a binding signal of 1.48.
As for ATGTTA, the figure is 1.23; as for CACTGC, 1.26.
CATTAT returned a binding signal of 1.15.
The figure for TAAATT is 1.21; for GCCGAA it is 0.97.
The figure for GTCTCT is 1.27; for AATCCT it is 1.37.
The figure for ACGCTA is 1.21; for TAGGGT it is 0.955.
CTTTAT came in with a binding signal of 1.19.
The figure for GTGTTT is 1.15; for CGTATC it is 1.28.
As for TTTCTA, the figure is 1.38.
The figure for TACATA is 1.21; for ATAACA it is 1.2.
AGATGC returned a binding signal of 1.06.
CTCACA: the binding signal was found to be 1.3.
As for AACTTT, the figure is 1.4; as for TGGCTC, 1.44; as for AATCCG, 1.66.
Take AACACT: the binding signal turned out to be 1.29.
CTGCAT had a binding signal of 1.24.
ACCCCC: the binding signal was 1.21.
For the sequence TCTTTT, the binding signal was 1.5.
Turning to ACTCTG, the binding signal came out at 1.27.
As for AACTCT, the figure is 1.34; as for TATTTA, 1.41; as for GGATGC, 1.3.
Turning to CAATAC, the binding signal worked out at 1.29.
As for GGTTCC, the figure is 1.71; as for ACGTCT, 1.17; as for ACACAT, 1.2.
Consider CACACG, for which the binding signal came to 1.1.
TATACG yielded a binding signal of 1.3.
